No constants are given. Whether binding was seen depends on the method and setting. For part of these data: Binding calls can cover weak binding; strength is not graded here. For part of these data: Binding seen in cells or lysates may run through a third protein. For part of these data: Sequences can lack the tags named with a protein.
T1: MBP-MKK2 (recombinant maltose binding protein fusion) (Arabidopsis thaliana) (UniProt Q9S7U9)
T1 sequence: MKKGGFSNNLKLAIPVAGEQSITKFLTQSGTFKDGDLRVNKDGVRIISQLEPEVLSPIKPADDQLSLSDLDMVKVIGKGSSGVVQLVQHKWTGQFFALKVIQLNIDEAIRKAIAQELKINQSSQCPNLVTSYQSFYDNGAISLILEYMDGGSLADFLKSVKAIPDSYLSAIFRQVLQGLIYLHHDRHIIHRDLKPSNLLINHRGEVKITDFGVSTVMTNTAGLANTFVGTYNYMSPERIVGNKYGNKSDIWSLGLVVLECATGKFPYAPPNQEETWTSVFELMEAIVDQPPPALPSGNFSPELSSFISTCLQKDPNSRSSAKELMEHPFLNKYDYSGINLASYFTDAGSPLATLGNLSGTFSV

T2: MBP-MKK3 (recombinant maltose binding protein fusion) (Arabidopsis thaliana) (UniProt O80396)
T2 sequence: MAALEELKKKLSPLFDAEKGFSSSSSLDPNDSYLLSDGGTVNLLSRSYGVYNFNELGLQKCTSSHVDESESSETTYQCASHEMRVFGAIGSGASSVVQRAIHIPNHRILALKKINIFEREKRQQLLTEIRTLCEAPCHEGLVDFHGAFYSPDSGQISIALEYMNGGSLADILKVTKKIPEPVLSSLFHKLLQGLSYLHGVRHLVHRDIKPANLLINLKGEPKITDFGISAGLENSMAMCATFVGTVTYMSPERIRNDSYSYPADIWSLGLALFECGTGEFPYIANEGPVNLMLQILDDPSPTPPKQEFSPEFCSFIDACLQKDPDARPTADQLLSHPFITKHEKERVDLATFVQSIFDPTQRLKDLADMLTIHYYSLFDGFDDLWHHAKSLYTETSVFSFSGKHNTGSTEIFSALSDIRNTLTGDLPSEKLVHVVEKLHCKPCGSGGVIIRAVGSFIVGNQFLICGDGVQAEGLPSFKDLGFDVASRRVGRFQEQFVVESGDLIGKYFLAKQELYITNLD

T3: MBP-MKK1 (recombinant maltose binding protein fusion) (Arabidopsis thaliana) (UniProt Q94A06)
T3 sequence: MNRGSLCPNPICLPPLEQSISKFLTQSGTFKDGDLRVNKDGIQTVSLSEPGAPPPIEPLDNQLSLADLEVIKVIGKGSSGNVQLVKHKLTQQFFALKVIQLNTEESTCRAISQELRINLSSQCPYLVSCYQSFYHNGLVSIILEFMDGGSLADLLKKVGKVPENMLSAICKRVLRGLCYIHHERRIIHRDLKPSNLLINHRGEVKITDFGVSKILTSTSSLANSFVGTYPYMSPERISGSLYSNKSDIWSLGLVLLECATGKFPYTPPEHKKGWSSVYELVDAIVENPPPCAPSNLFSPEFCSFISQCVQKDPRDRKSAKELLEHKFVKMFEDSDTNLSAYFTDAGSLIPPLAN


Key:
[1] = target: T1, MBP-MKK2 (recombinant maltose binding protein fusion) (Arabidopsis thaliana); assay: pull-down
[2] = target: T2, MBP-MKK3 (recombinant maltose binding protein fusion) (Arabidopsis thaliana); assay: pull-down
[3] = target: T3, MBP-MKK1 (recombinant maltose binding protein fusion) (Arabidopsis thaliana); assay: pull-down
[4] = target: PM19L1 81 N-G (non-conserved residue of the intracellular loop), split-ubiquitin bait (Arabidopsis thaliana) (UniProt O23029); assay: two-hybrid
[5] = target: PM19L1 (Arabidopsis AWPM-19 protein encoded by AT1G04560), split-ubiquitin bait (Arabidopsis thaliana) (UniProt O23029); assay: two-hybrid

binding [1] | binding [2] | binding [3] | binding [4] | binding [5] | Molecule
binds | binds | no binding | – | – | PM19L1-GFP (pCaMV35S:PM19L1-GFP) (from UniProt O23029)
– | – | – | binds | binds | Arabidopsis MAP kinase kinase MKK2, split-ubiquitin prey (enzyme, UniProt Q9S7U9 1-363) MKKGGFSNNLKLAIPVAGEQSITKFLTQSGTFKDGDLRVNKDGVRIISQLEPEVLSPIKPADDQLSLSDLDMVKVIGKGSSGVVQLVQHKWTGQFFALKVIQLNIDEAIRKAIAQELKINQSSQCPNLVTSYQSFYDNGAISLILEYMDGGSLADFLKSVKAIPDSYLSAIFRQVLQGLIYLHHDRHIIHRDLKPSNLLINHRGEVKITDFGVSTVMTNTAGLANTFVGTYNYMSPERIVGNKYGNKSDIWSLGLVVLECATGKFPYAPPNQEETWTSVFELMEAIVDQPPPALPSGNFSPELSSFISTCLQKDPNSRSSAKELMEHPFLNKYDYSGINLASYFTDAGSPLATLGNLSGTFSV
– | – | – | binds | binds | Arabidopsis MAP kinase kinase MKK3, split-ubiquitin prey (enzyme, UniProt O80396 1-520) MAALEELKKKLSPLFDAEKGFSSSSSLDPNDSYLLSDGGTVNLLSRSYGVYNFNELGLQKCTSSHVDESESSETTYQCASHEMRVFGAIGSGASSVVQRAIHIPNHRILALKKINIFEREKRQQLLTEIRTLCEAPCHEGLVDFHGAFYSPDSGQISIALEYMNGGSLADILKVTKKIPEPVLSSLFHKLLQGLSYLHGVRHLVHRDIKPANLLINLKGEPKITDFGISAGLENSMAMCATFVGTVTYMSPERIRNDSYSYPADIWSLGLALFECGTGEFPYIANEGPVNLMLQILDDPSPTPPKQEFSPEFCSFIDACLQKDPDARPTADQLLSHPFITKHEKERVDLATFVQSIFDPTQRLKDLADMLTIHYYSLFDGFDDLWHHAKSLYTETSVFSFSGKHNTGSTEIFSALSDIRNTLTGDLPSEKLVHVVEKLHCKPCGSGGVIIRAVGSFIVGNQFLICGDGVQAEGLPSFKDLGFDVASRRVGRFQEQFVVESGDLIGKYFLAKQELYITNLD
– | – | – | no binding | binds weakly | Arabidopsis MAP kinase kinase MKK1, split-ubiquitin prey (enzyme, UniProt Q94A06 1-354) MNRGSLCPNPICLPPLEQSISKFLTQSGTFKDGDLRVNKDGIQTVSLSEPGAPPPIEPLDNQLSLADLEVIKVIGKGSSGNVQLVKHKLTQQFFALKVIQLNTEESTCRAISQELRINLSSQCPYLVSCYQSFYHNGLVSIILEFMDGGSLADLLKKVGKVPENMLSAICKRVLRGLCYIHHERRIIHRDLKPSNLLINHRGEVKITDFGVSKILTSTSSLANSFVGTYPYMSPERISGSLYSNKSDIWSLGLVLLECATGKFPYTPPEHKKGWSSVYELVDAIVENPPPCAPSNLFSPEFCSFISQCVQKDPRDRKSAKELLEHKFVKMFEDSDTNLSAYFTDAGSLIPPLAN

— article doi:10.1101/2020.08.10.244889
